Reference: article PMC13483313
Results are given in words; binding and its absence hold for the method and conditions named. In cells and extracts the contact can be indirect. Some results given as binding are weak or reduced against the parent protein; the word gives no strength.

Target: vaccinia virus J5 protein, wild type (WT J5) (vaccinia virus (Western Reserve strain)) (UniProt P07618)
Experiment: co-IP

For “vaccinia virus L5 protein (from UniProt P68623 1-128)”, the binding was “binds”.
